According to PubChem BioAssay AID1347075 (National Center for Advancing Translational Sciences (NCATS), 2019):
Out of some 400,000 compounds screened, about 5,500 (1.4%) were called active. The shares of active, inactive and inconclusive entries below differ from those in the screen. Calls come from the whole dose curve; as a rule, active = well fitted cell-killing curve with a large enough effect; inconclusive = small, poorly fitted or top-dose-only effect, or effect the other way; inactive = flat fitted curve, though single readings scatter. Potencies beside an inconclusive call are fits to weak or partial responses and may not hold up.

assay: qHTS assay for MDR1-selective chemotherapeutics: Primary screen using the parental adenocarcinoma cell KB-3-1; conditions: KB-3-1 viability, CellTiter-Glo ATP luminescence, 72 h; series mostly up to 46.1 µM; note: nearly all actives have a fitted effect of over 60% in size
Procedure, shortened: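 Parental KB-3-1 viability, qHTS format: 72 h compound exposure, 37 °C; CellTiter-Glo; media-only wells and DMSO plates as controls; concentration-effect fits on corrected data.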
Potency is the fitted concentration of half-maximal effect.

SMILES | Potency
Cc1[nH]c2ccccc2c1C(=O)CN1C(=O)NC(C)(c2ccc(Cl)cc2Cl)C1=O (stereo not given) | inconclusive: 18.4 µM [cytotoxic, partial curve]
Fc1cccc(F)c1-n1c(CN2CCCCC2)csc1=S | active: 23.1 µM
O=C1CC(c2cc([N+](=O)[O-])ccc2Cl)c2c(ccc3ccccc23)N1 (stereo not given) | inconclusive: 23.1 µM [cytotoxic, single point]
COc1ccccc1C(=O)N1c2ccccc2Sc2ccccc21 | active: 20.6 µM
O=C1NC(=S)/C(=C\c2ccc(-c3ccccc3Cl)o2)S1 | inconclusive: 29.1 µM [cytotoxic, single point]
O=C1NC(c2ccc(O)cc2)Nc2ccccc21 (stereo not given) | inconclusive: 29.1 µM [cytotoxic, single point]
Nc1ncnc2c1ncn2[C@@H]1O[C@H](CO)C[C@H]1O | inactive
COc1cc(C#Cc2c(-c3cncn3C)n(C)c3ccc(-c4ccc(CN5CCOCC5)cc4)cc23)cc(OC)c1 | inconclusive: 29.1 µM [cytotoxic, single point]
COc1ccc(-c2nn(-c3ccccc3)cc2C2NC(=O)NC(C)=C2C(=O)OC(C)C)cc1OC (stereo not given) | inconclusive: 32.6 µM [rising, single point]
COc1cc(OC)cc(C(=O)O/N=C(\N)c2ccccn2)c1 | inactive
CC[C@@H]1Cc2cc(O)ccc2C2=C1c1ccc(O)cc1C[C@H]2CC | inconclusive: 29.1 µM [cytotoxic, single point]
Cc1ccc(C(=O)C2COC(=O)C2)cc1 (stereo not given) | inconclusive: 29.1 µM [cytotoxic, single point]
COc1ccc(N2C(=O)CSC23C(=O)N(Cc2cccc(F)c2)c2ccccc23)cc1Cl (stereo not given) | inconclusive: 18.4 µM [cytotoxic, single point]
CCN(CC)S(=O)(=O)c1ccc(N2CCN(S(=O)(=O)c3ccc4c(c3)OCCO4)CC2)nc1 | inconclusive: 20.6 µM [cytotoxic, single point]
C[C@@H]1CN(C(=O)c2nc3ccc(Cl)cn3c2CN2CCc3sccc3C2)C[C@H](C)O1 | inconclusive: 20.6 µM [cytotoxic, partial curve, poor fit]
CCc1cc(-c2nnn(CCC3COCCO3)c2CC)ccc1-c1cn(Cc2ccccc2)nn1 (stereo not given) | inconclusive: 16.4 µM [cytotoxic, single point]
Cc1ccc(-c2ccc(CN3C(C(C)C)C(=O)N(Cc4cn(CCC5OCCO5)nn4)CCS3(=O)=O)cc2)c(C)c1 (stereo not given) | inconclusive: 29.1 µM [cytotoxic, single point]
C=CCn1c(C)cc(C(=O)CN2NS(=O)(=O)c3ccccc3C2=O)c1C | inconclusive: 23.1 µM [cytotoxic, single point]
Cc1nc(-n2nc(C)c(CCC(C)C)c2C)sc1C(=O)Nc1ccc(Cl)cc1 | inactive
COc1ccccc1C(=O)N1CCN(c2cccc(C(F)(F)F)c2)CC1 | active: 5.17 µM

A draw from above in order of length of the SMILES, descending.
SMILES | Potency
Cc1ccc(-c2ccc(CN3C(C(C)C)C(=O)N(Cc4cn(CCC5OCCO5)nn4)CCS3(=O)=O)cc2)c(C)c1 (stereo not given) | inconclusive: 29.1 µM [cytotoxic, single point]
CCN(CC)S(=O)(=O)c1ccc(N2CCN(S(=O)(=O)c3ccc4c(c3)OCCO4)CC2)nc1 | inconclusive: 20.6 µM [cytotoxic, single point]
COc1ccc(-c2nn(-c3ccccc3)cc2C2NC(=O)NC(C)=C2C(=O)OC(C)C)cc1OC (stereo not given) | inconclusive: 32.6 µM [rising, single point]
C[C@@H]1CN(C(=O)c2nc3ccc(Cl)cn3c2CN2CCc3sccc3C2)C[C@H](C)O1 | inconclusive: 20.6 µM [cytotoxic, partial curve, poor fit]
O=C1CC(c2cc([N+](=O)[O-])ccc2Cl)c2c(ccc3ccccc23)N1 (stereo not given) | inconclusive: 23.1 µM [cytotoxic, single point]
C=CCn1c(C)cc(C(=O)CN2NS(=O)(=O)c3ccccc3C2=O)c1C | inconclusive: 23.1 µM [cytotoxic, single point]
COc1ccccc1C(=O)N1CCN(c2cccc(C(F)(F)F)c2)CC1 | active: 5.17 µM
Nc1ncnc2c1ncn2[C@@H]1O[C@H](CO)C[C@H]1O | inactive
Fc1cccc(F)c1-n1c(CN2CCCCC2)csc1=S | active: 23.1 µM
O=C1NC(c2ccc(O)cc2)Nc2ccccc21 (stereo not given) | inconclusive: 29.1 µM [cytotoxic, single point]

The results go on:

SMILES | Potency
O=C(C[n+]1cc(Br)cc2ccccc21)c1ccc(Cl)cc1 | inconclusive: 20.6 µM [cytotoxic, partial curve, poor fit]
CC(C)(C)N1C(=O)c2ccc(C(=O)Nc3ccc(O)cc3)cc2C1=O | inconclusive: 29.1 µM [cytotoxic, single point]
Cn1cc(Br)c(C(=O)N/N=C/c2cc3c(cc2Cl)OCO3)n1 | inconclusive: 29.1 µM [rising, single point]
C=CCOC(=O)c1sc(NC(=O)c2ccco2)nc1C | inconclusive: 20.6 µM [cytotoxic, single point]
COC(=O)[C@]12CCCCC=C1N(Cc1ccccc1)C(=O)[C@H](CC(=O)NCc1cccc(C(F)(F)F)c1)C2 | inconclusive: 29.1 µM [cytotoxic, single point]
COc1ccc(-c2cc(-c3ccccc3)c(C#N)c(S(C)=O)n2)cc1 (stereo not given) | inconclusive: 29.1 µM [cytotoxic, single point]
CC[N+](C)(C)c1ccc(/C=C/c2ccnc3ccccc23)cc1 | inconclusive: 0.517 µM [cytotoxic, full curve, poor fit]
COc1ccccc1NC(=O)Cn1nc(-c2ccc(Cl)cc2)c2ccccc2c1=O | inconclusive: 23.1 µM [cytotoxic, single point]
COc1cccc(-c2cc(C(=O)Nc3cc(C)n(Cc4ccc(Cl)cc4)n3)no2)c1 | inactive
Cc1ccc(C)c(N2CCN(S(=O)(=O)c3c(C)noc3/C=C/N(C)C)CC2)c1 | inconclusive: 29.1 µM [cytotoxic, single point]
Cc1ccccc1Cn1c2ccccc2c2cn[nH]c(=O)c21 | inconclusive: 18.4 µM [cytotoxic, single point]
O=C(NCc1ccccc1)C(=O)Nc1c2c(nn1-c1ccccc1)CSC2 | inactive
Cc1ccc(NC(=O)COC(=O)Cc2ccccc2)cc1S(=O)(=O)N1CCOCC1 | inconclusive: 14.6 µM [rising, single point]
COc1ccc(-n2c(=S)[nH]c3sc(-c4ccccc4)cc3c2=O)c(OC)c1 | inconclusive: 16.4 µM [rising, partial curve, poor fit]
CCN1CCCC1CN(Cc1cc2c(C)cc(C)cc2[nH]c1=O)C(=O)NC1CCCCC1 (stereo not given) | inconclusive: 23.1 µM [cytotoxic, single point]
CCOC(=O)C1C(=O)OC(C)(C)C1C(C)C(=O)c1ccc(OC)cc1 (stereo not given) | inactive
C/C(=N/NC(=O)COc1ccc(C(C)(C)C)cc1)c1ccc(N2CCOCC2)cc1 | inconclusive: 29.1 µM [rising, single point]
COc1ccc(S(=O)(=O)Cc2ccc(C(=O)O)o2)cc1 | inconclusive: 0.461 µM [rising, full curve, poor fit]
OCCN1CCN(C2Cc3cc(Cl)ccc3Sc3ccc(Cl)cc32)CC1 (stereo not given) (tested in a mixture with another compound) | inconclusive: 18.4 µM [cytotoxic, single point]
Cc1cc(Cl)nc2ccccc12 | inconclusive: 16.4 µM [rising, partial curve, poor fit]
